Literature values in patent US9539299B2, “Combination therapy with WT1 peptide vaccine and temozolomide” (INTERNATIONAL INSTITUTE OF CANCER IMMUNOLOGY, INC., priority 2011, dated 2017).
At least one structure is not confirmed: it was looked up by name or label, or the drawing left a doubt.

Tested on: newly-diagnosed malignant glioma
Conditions: radiation therapy and temozolomide after surgery; Non Patent Literature 6

Cn1nnc2c(C(N)=O)ncn2c1=O [temozolomide]
Median 2-year survival: 26%
Median overall survival (OS): 14.6 months
Median progression-free survival (PFS): 6.9 months
